Results reported in publication PMC13360168.
These are yes or no findings as the source states them, for the method shown. Some entries that bind do so weakly or less than the wild type.

The chains behind the UniProt entries cited, without tags or fusion partners.
UniProt Q9SXZ2: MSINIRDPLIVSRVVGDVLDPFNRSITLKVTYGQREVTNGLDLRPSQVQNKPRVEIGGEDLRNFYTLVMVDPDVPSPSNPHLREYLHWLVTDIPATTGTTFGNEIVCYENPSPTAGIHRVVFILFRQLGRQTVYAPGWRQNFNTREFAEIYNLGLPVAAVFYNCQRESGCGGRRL

Biological target: FLOWERING LOCUS T (FT) (Arabidopsis thaliana) (UniProt Q9SXZ2)
Assay: two-hybrid; Matchmaker GAL4 Two-Hybrid System (Clontech); CLF in pGADT7, FT in pGBKT7; yeast strain AH109; growth on solid synthetic medium without leucine, tryptophan, histidine and adenine

binding: binds
B1: CURLY LEAF (CLF) (protein, UniProt P93831 1-902)
chain: MASEASPSSSATRSEPPKDSPAEERGPASKEVSEVIESLKKKLAADRCISIKKRIDENKKNLFAITQSFMRSSMERGGSCKDGSDLLVKRQRDSPGMKSGIDESNNNRYVEDGPASSGMVQGSSVPVKISLRPIKMPDIKRLSPYTTWVFLDRNQRMTEDQSVVGRRRIYYDQTGGEALICSDSEEEAIDDEEEKRDFLEPEDYIIRMTLEQLGLSDSVLAELASFLSRSTSEIKARHGVLMKEKEVSESGDNQAESSLLNKDMEGALDSFDNLFCRRCLVFDCRLHGCSQDLIFPAEKPAPWCPPVDENLTCGANCYKTLLKSGRFPGYGTIEGKTGTSSDGAGTKTTPTKFSSKLNGRKPKTFPSESASSNEKCALETSDSENGLQQDTNSDKVSSSPKVKGSGRRVGRKRNKNRVAERVPRKTQKRQKKTEASDSDSIASGSCSPSDAKHKDNEDATSSSQKHVKSGNSGKSRKNGTPAEVSNNSVKDDVPVCQSNEVASELDAPGSDESLRKEEFMGETVSRGRLATNKLWRPLEKSLFDKGVEIFGMNSCLIARNLLSGFKSCWEVFQYMTCSENKASFFGGDGLNPDGSSKFDINGNMVNNQVRRRSRFLRRRGKVRRLKYTWKSAAYHSIRKRITEKKDQPCRQFNPCNCKIACGKECPCLLNGTCCEKYCGCPKSCKNRFRGCHCAKSQCRSRQCPCFAADRECDPDVCRNCWVIGGDGSLGVPSQRGDNYECRNMKLLLKQQQRVLLGISDVSGWGAFLKNSVSKHEYLGEYTGELISHKEADKRGKIYDRENCSFLFNLNDQFVLDAYRKGDKLKFANHSPEPNCYAKVIMVAGDHRVGIFAKERILAGEELFYDYRYEPDRAPAWAKKPEAPGSKKDENVTPSVGRPKKLA
